Data taken from ChEMBL document CHEMBL3988442, “University of Dundee, Small-Polar-MMV Screening Library” (2021).

Chains of the proteins cited; added tags and fusions are not shown. Residues count along the entry.
UniProt P9WPC5, whole entry: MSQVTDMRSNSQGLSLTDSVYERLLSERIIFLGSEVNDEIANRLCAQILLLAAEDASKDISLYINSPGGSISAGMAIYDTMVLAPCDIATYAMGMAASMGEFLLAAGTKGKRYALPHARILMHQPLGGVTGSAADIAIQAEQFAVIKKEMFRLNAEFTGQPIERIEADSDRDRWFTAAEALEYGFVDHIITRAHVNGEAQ
UniProt P9WPC3, whole entry partner: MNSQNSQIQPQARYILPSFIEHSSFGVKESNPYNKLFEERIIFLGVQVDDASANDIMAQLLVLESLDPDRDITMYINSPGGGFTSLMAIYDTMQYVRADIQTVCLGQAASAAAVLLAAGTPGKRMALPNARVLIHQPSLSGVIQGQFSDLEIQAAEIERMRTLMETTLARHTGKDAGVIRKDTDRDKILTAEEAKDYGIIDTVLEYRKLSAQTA
UniProt Q8IDJ8, 1-583: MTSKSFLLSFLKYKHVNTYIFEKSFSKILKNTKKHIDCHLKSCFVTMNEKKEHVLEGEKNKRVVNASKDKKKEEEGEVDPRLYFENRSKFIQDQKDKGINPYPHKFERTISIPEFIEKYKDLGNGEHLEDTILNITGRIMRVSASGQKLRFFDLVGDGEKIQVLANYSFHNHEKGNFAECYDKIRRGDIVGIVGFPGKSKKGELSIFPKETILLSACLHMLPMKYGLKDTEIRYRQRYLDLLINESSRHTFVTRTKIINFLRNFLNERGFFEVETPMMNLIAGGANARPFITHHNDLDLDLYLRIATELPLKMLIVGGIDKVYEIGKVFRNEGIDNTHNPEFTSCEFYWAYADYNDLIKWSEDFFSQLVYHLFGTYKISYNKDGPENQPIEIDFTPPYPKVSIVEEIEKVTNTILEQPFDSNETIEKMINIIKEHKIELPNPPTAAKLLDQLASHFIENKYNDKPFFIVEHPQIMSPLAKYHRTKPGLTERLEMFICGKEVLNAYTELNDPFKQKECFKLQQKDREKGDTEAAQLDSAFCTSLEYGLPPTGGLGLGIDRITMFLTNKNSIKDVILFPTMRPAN

Leishmania in macrophages: 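Cell assay of Leishmania donovani living inside macrophages; the read-out is not stated. Tested at 30 µM. Direction is inferred from retests: higher values go with stronger inhibition. Of about 69,000 compounds tested this way, about 1,000 (1.5%) reached 50% or more in at least one test.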
ClpP1P2: 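Protease assay of ClpP1P2, read by the AMC dye that it sets free. Target: ClpP1P2, Mycobacterium tuberculosis (UniProt P9WPC5 and UniProt P9WPC3). Compounds at 50 µM. Direction is inferred from only a few compounds that gave an IC50; most scored high, so higher reads as stronger inhibition. Most other retested compounds had strongly negative values. About 69,000 compounds were tested under these conditions; 0.015% (about 10) showed 50% or more at least once.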
Toxoplasma: 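Assay of Toxoplasma gondii numbers, read through their beta-galactosidase reporter with a colour substrate. Compounds at 10 µM. The record gives no direction; the compounds picked for IC50 retests had high values, so higher reads as fewer parasites. Of about 67,000 compounds tested this way, about 260 (0.38%) reached 50% or more in at least one test.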
PfKRS1: 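Enzyme assay of the cytosolic lysyl-tRNA synthetase in 384-well plates, read by luminescence. Target: Lysine-tRNA ligase, Plasmodium falciparum 3D7 (UniProt Q8IDJ8). Compounds at 30 µM. Higher reads as stronger inhibition, judged from the few compounds that gave an IC50. About 69,000 compounds were tested under these conditions; 0.071% (about 49) showed 50% or more at least once.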

The filed quantity is “Percent Effect” (%).
The controls that fix the scale are not given in the record; negative values are as filed.
This is an unselected part of the compounds tested.
Two or more numbers in one place are separate tests of the same structure; such repeats can differ widely.
A dash means the value is not listed here; it may have been measured.

SMILES,Leishmania in macrophages,ClpP1P2,Toxoplasma,PfKRS1
CN(C)C(=O)COC1COC2(CCN(c3cnccn3)CC2)C1 (stereo not drawn),-,-1.229,-,-3.605
[H][C@@]12CCN(Cc3nccs3)C[C@@]1([H])O[C@@H](C)C2,24.97,-,13.46,-
Cc1cc(=O)[nH]c(=O)n1-c1ccccc1Br,7.302,-3.341,-11.73,1.563
[H][C@]12CC[C@]([H])(CN(Cc3nccs3)C1)N(Cc1c(C)noc1C)C2=O,-9.165,-,8.72,-
O=C(NCC(c1ccccc1)N1CCOCC1)Nc1cn[nH]c1 (stereo not drawn),-6.147,-39.25,14.5,-0.569
Cc1nc(CN2CCN(C(=O)CCC(=O)c3ccccc3)CC2)no1,-29.64,13.08,13.39,2.392
CCN1CCCC(O)(CN(C)Cc2ccccc2F)C1 (stereo not drawn),32.69,9.585,10.01,4.184
CC[C@H](C)[C@@H](CO)NC(C)Cc1ccc(C)cc1 (stereo partly drawn),26.45,-0.3998,7.58,0.6268
CNS(=O)(=O)CC(=O)N1CCC(c2ccc(F)c(F)c2)CC1,9.155,-0.01899,6.659,0.7709
CC(NC(N)=O)C(=O)NCc1ccc(Br)c(F)c1 (stereo not drawn),25.85,-1.525,0.7646,-0.8416
CCO[C@@H]1CO[C@@]2(CCCN(S(=O)(=O)c3ccccc3)C2)C1,30.96,-0.01517,-0.5294,4.82
Cc1c(CNC(=O)Nc2cccc3c2CCN3C)cnn1C,26.7,-0.9635,-6.525,0.6658
Cc1n[nH]c(C(=O)NCc2ccnc(OCC(F)(F)F)c2)c1Br,34.57,16.96,-16.23,1.467
Cn1ccc2c(C(=O)NCCCN3CCOCC3)cccc21,16.68 and -10.98,-32.51,3.85,-0.2555
Cc1cc(N2CCOC(C)(C(=O)N(C)C)C2)ncn1 (stereo not drawn),-18.38,-10.54,-13.89,0.9611
Cn1ccnc1CN1CCN(CC(=O)NCc2ccccc2F)CC1,21.67,-4.355,-49.07,3.575
CNc1nc(C)c(C(=O)N2CCCCC2CCN2CCOCC2)s1 (stereo not drawn),6.485,-0.1687,17.63,1.474
N#CC1COCCN1S(=O)(=O)c1ccc2c(c1)CCC2 (stereo not drawn),-13.57,-11.66,2.733,8.721
CC(C)N1CCC(c2nc3ccc(-c4ccnn4C)cn3n2)CC1.O=C(O)C(F)(F)F,5.072,-,16.43,-
Cc1nccn1CCCNc1ncccc1C#N,-45.24,-7.98,-29.06,-0.3413
[H][C@@]12C[C@H](NC(=O)c3cccc4[nH]c(C)nc34)CN1CCN(C)C2,13.4,-,2.079,-
CN(C)Cc1nnc(C2CCCN(c3nccc4ccccc34)C2)n1C (stereo not drawn),8.076,-30.54,-18.22,5.462
NC(=O)NC(=O)CNC1(c2ccc(Cl)cc2)CCC1,18.04,-3.833,-13.22,12.84
COc1cccc(-c2nc(CNCCCn3cccn3)cs2)c1,-26.17,-3.75,2.694,5.491
CN(Cc1ccccc1)C1COC2(CCN(Cc3nccs3)CC2)C1.O=C(O)C(F)(F)F (stereo not drawn),34.58,-,-3.312,-
c1ccc(-c2nc3c(c(NCCn4ccnn4)n2)CCNCC3)nc1,12.83,-9.211,0.534,1.118
Cc1cc(C(=O)Nc2ccn(CCCN3CCCC3)n2)c(C)o1,-0.4029,-1.449,-2.082,-0.183
Cc1cc(CN2CCC(CNC(=O)c3cnc(C)nc3C)C2)[nH]n1 (stereo not drawn),-17.2,-0.4933,-14.25,-1.771
COc1c(CNCc2ccccc2Cn2cncn2)c(C)nn1C,15.34,0.2949,-6.672,0.5014
COc1c(CNC2CCCN(c3ncccn3)C2)c(C(C)C)nn1C (stereo not drawn),-15.54,-16.5,29.52,-2.046
Cc1nc(COc2cccc(C#N)c2)no1,-12.6,0.06855,-3.704,2.849
CS(=O)(=O)NCCCSCc1cccc2cccnc12,10.6,1.438,1.834,2.511
COc1cccc(-c2ccnc3nc(N4CCCCC4)[nH]c(=O)c23)c1,7.18,-122.3,26.61,-1.237
COc1cccc(OC2CN(C(=O)c3ccoc3C)C2)c1,-4.96,22.53,16.59,3.8
O=C(c1ccco1)N1CCC(CSCc2ccco2)CC1,-3.002,8.185,-14.65,4.581
O=C(O)c1ccccc1-c1cnc(Cn2c(=O)cc[nH]c2=O)s1,-14.41,-30.98,-21.97,2.718
Fc1cnc(N2CC[C@@H](N3CCOCC3)[C@@H]2Cc2cccnc2)nc1,-,12.12,-,-4.213
Cc1nn(C)c(Cl)c1C1CCCN1Cc1cccc(C(N)=O)c1 (stereo not drawn),10.63,-9.37,-60.47,0.6183
COc1cc(OC)c2c(=O)oc(CC(O)CC(C)=O)cc2c1 (stereo not drawn),1.332,-6.52,-8.674,4.22
O=C(O)C(F)(F)F.O=C(O)C(F)(F)F.O=C(O)C(F)(F)F.c1cncc(CN2CCC3(COCCN(C4CCOCC4)C3)C2)c1 (stereo not drawn),26.81,-,4.459,-
COC(=O)CCC(=O)NC(C)Cc1ccccc1Br (stereo not drawn),10.51,0.2519,11.86,4.198
O=C([C@H]1CCCO1)N1CCc2ncnc(NC3CC3)c2CC1,2.939,3.981,-10.76,15.23
COc1ccc(CNC(=O)NC2CCN(C)CC2)c(C(F)(F)F)c1,16,1.226,12.74,5.927
Cc1ccc(C(=O)N2CCC3(CC2)c2ccccc2[C@@H](N)[C@@H]3O)cc1F,-2.43,-20.13,5.275,-0.5952
O=C(NCC1CCCCC1)N1C[C@@H]2C[C@H]1CN2,-,-11.61,-,4.061
O=C(Nc1ccccc1-c1ccccc1)N1C[C@@H]2CNC[C@]2(C(=O)O)C1,-,4.153,-,3.844
O=C(NS(=O)(=O)c1ccc(F)c(F)c1)c1cscn1,-51.62,-3.223,-10.82,-2.4
CN1CC(=O)N(c2cnn(C)c2)CC12CCN(Cc1cccs1)C2.O=C(O)C(F)(F)F.O=C(O)C(F)(F)F (stereo not drawn),19.06,-,-3.92,-
c1cncc(N2CCCn3nnc(CN4CCOCC4)c3C2)c1,35.09,-8.733,5.193,3.649
O=C(N[C@@H]1CCNC[C@H]1O)c1ccc(-c2ccc(F)cc2)cc1,72.82,-15.01,5.387,6.277
CC(CN1CCCC1)C(=O)N1CCC(c2nccn2CC2CC2)CC1 (stereo not drawn),9.571,-9.149,-1.154,0.8557
Cc1ccnc(C(Nc2nccc(-c3ccc(C)nc3C)n2)C2CC2)c1 (stereo not drawn),-2.905,-7.652,-15.79,1.069
CC1CCN(C(=O)c2ccnc(-n3cncn3)c2)c2ccccc21 (stereo not drawn),10.54,3.302,-5.552,7.392
Cn1c(CCNC(=O)Nc2cn[nH]c2)nc2ccc(F)cc21,12.55,-0.7442,12.77,0.8165
COc1ccccc1C(C)N1CCN(S(C)(=O)=O)CC1 (stereo not drawn),-2.244,-4.744,3.59,-0.6128
CC1CCc2nn(CCNC(=O)Cc3cccs3)c(=O)cc2C1 (stereo not drawn),15.89,4.279,7.394,-0.4435
CCOc1c(Br)cc(/C=C/c2ncc(C(=O)O)s2)cc1OC,-0.6359,-10.85,-6.967,-0.2617
Cc1ccc(-c2cc(C(=O)NCCN3CCCS3(=O)=O)[nH]n2)cc1,-10.89,-2.829,34.05,-0.6938
Cn1nnnc1SCC1(O)CCCCC1,14.76,-4.135,12.91,13.41
Cc1ccc(C(=O)O)cc1CNC(=O)CN1CC[C@](C)(O)C(C)(C)C1,62.04,-6.888,-9.645,2.346
O=C(O)C(F)(F)F.[H][C@]12CC[C@@]3(N=C(CC)N(CC4CC4)C3=O)[C@@]1([H])CN(CC(=O)N(C)C)C2,-6.713,-,-4.304,-
CC(C)CCN1CC2(CCN(C(=O)C3(C)CCCCO3)CC2)OC1=O (stereo not drawn),6.725,8.405,-9.861,2.969
CC(=O)Nc1cccc(OCCNC(=O)N(C)Cc2ccco2)c1,20.19,-7.579,-2.162,1.637

For reference, 4 entries once more:

Cc1ccc(C(=O)O)cc1CNC(=O)CN1CC[C@](C)(O)C(C)(C)C1 read Leishmania in macrophages: 62.04%; ClpP1P2: -6.888%; Toxoplasma: -9.645%; PfKRS1: 2.346%.
CN(C)Cc1nnc(C2CCCN(c3nccc4ccccc34)C2)n1C (stereo not drawn) read Leishmania in macrophages: 8.076%; ClpP1P2: -30.54%; Toxoplasma: -18.22%; PfKRS1: 5.462%.
Cc1cc(=O)[nH]c(=O)n1-c1ccccc1Br read Leishmania in macrophages: 7.302%; ClpP1P2: -3.341%; Toxoplasma: -11.73%; PfKRS1: 1.563%.
CN(Cc1ccccc1)C1COC2(CCN(Cc3nccs3)CC2)C1.O=C(O)C(F)(F)F (stereo not drawn) read Leishmania in macrophages: 34.58%; Toxoplasma: -3.312%.